Experimental data from the supplement of paper PMC10849652.
Some of the results follow.

Protein sequences, listed by entry. Tags and fused reporters are not part of them. Lines headed by an entry give the natural chain unless they say otherwise; changes in a name come on top.
UniProt Q8TBB5: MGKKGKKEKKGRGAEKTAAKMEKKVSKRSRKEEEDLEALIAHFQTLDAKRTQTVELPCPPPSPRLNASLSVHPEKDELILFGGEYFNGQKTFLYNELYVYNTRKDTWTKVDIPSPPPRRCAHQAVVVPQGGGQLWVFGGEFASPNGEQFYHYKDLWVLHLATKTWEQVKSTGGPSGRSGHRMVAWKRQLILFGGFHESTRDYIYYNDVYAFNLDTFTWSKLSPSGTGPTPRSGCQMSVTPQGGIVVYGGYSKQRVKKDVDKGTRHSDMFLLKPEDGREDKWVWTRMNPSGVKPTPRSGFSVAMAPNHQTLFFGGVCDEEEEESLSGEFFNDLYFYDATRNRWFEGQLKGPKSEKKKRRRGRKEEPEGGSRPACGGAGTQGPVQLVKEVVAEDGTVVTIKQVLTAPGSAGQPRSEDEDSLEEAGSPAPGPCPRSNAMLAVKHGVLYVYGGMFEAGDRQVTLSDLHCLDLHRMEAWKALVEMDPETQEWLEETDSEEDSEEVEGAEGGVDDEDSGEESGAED
UniProt Q8IYS2: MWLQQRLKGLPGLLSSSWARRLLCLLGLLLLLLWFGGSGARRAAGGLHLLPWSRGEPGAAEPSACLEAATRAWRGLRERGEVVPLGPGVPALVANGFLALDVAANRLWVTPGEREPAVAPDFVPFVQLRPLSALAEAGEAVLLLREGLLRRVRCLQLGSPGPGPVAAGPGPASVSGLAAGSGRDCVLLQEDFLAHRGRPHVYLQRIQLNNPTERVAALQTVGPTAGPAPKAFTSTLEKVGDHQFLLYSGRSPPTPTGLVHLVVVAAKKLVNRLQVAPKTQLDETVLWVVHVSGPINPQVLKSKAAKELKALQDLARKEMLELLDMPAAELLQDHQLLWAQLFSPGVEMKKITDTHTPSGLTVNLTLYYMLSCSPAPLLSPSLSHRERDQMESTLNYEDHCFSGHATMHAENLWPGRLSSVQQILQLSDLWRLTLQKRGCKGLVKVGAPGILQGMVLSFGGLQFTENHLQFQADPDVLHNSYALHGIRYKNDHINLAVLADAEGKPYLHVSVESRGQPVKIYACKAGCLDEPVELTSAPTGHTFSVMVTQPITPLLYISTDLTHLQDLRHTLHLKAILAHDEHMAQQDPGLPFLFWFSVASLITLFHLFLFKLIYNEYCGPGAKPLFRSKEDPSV
UniProt Q96EK9: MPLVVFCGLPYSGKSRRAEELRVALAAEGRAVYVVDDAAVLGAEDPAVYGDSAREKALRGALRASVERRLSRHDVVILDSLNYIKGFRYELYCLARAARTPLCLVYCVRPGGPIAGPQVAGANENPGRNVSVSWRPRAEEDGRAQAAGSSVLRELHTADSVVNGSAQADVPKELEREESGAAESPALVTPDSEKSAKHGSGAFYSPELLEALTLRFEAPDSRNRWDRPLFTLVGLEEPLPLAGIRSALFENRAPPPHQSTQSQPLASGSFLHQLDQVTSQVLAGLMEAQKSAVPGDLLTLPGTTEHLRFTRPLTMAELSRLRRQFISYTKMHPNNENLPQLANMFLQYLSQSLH
UniProt O43813, whole entry, looked up: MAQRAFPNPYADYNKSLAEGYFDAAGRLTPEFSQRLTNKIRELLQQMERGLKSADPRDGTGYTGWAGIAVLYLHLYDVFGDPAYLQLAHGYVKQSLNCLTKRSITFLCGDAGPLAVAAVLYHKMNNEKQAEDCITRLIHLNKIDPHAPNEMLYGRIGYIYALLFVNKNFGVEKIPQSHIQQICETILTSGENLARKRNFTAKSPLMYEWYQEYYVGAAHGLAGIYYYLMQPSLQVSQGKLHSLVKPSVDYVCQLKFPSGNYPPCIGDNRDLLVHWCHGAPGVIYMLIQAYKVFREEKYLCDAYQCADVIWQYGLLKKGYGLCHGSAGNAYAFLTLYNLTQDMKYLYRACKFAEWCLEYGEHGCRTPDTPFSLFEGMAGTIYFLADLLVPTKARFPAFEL
UniProt Q4G0J3: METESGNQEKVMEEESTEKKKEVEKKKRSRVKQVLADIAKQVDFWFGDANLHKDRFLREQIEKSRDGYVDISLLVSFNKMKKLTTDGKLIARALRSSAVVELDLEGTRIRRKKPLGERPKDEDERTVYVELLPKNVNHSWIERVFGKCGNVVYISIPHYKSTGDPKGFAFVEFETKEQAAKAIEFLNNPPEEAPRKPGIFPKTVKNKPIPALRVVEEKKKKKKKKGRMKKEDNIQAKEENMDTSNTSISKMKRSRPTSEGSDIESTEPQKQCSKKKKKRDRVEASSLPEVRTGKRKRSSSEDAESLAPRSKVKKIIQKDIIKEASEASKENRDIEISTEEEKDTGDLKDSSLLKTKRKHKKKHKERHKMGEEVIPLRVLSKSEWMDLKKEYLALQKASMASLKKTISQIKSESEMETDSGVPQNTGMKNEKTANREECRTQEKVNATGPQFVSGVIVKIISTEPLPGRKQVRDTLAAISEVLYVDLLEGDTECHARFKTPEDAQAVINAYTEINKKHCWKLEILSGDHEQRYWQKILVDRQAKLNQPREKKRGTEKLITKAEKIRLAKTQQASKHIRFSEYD
UniProt Q8N371: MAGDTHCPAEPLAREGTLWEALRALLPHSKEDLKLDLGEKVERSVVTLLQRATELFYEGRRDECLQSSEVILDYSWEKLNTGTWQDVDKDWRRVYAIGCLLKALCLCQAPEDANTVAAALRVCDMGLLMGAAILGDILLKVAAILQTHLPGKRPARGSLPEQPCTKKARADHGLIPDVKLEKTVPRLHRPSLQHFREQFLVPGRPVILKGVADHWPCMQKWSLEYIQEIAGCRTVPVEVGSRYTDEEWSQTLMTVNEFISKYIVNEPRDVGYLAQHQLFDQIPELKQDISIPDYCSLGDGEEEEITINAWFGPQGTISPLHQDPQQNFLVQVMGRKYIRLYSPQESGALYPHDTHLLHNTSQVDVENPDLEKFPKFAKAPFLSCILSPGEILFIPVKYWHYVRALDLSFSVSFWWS
UniProt Q9H0B6: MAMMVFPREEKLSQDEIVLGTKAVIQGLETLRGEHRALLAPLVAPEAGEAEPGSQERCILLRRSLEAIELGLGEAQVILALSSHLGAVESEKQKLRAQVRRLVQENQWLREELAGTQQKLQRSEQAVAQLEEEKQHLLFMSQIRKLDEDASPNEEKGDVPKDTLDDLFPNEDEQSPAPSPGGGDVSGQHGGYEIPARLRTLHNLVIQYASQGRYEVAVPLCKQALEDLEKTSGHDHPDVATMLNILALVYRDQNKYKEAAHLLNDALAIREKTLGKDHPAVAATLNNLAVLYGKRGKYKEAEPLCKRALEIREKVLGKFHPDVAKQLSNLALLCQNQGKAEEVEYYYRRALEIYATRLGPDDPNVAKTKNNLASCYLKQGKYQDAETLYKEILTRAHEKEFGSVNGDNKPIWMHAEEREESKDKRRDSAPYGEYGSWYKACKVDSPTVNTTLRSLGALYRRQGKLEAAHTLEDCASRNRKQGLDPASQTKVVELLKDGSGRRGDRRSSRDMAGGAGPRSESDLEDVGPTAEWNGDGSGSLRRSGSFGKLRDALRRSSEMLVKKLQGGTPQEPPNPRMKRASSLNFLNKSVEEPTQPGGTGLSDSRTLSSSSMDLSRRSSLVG
UniProt Q14974, whole entry, looked up: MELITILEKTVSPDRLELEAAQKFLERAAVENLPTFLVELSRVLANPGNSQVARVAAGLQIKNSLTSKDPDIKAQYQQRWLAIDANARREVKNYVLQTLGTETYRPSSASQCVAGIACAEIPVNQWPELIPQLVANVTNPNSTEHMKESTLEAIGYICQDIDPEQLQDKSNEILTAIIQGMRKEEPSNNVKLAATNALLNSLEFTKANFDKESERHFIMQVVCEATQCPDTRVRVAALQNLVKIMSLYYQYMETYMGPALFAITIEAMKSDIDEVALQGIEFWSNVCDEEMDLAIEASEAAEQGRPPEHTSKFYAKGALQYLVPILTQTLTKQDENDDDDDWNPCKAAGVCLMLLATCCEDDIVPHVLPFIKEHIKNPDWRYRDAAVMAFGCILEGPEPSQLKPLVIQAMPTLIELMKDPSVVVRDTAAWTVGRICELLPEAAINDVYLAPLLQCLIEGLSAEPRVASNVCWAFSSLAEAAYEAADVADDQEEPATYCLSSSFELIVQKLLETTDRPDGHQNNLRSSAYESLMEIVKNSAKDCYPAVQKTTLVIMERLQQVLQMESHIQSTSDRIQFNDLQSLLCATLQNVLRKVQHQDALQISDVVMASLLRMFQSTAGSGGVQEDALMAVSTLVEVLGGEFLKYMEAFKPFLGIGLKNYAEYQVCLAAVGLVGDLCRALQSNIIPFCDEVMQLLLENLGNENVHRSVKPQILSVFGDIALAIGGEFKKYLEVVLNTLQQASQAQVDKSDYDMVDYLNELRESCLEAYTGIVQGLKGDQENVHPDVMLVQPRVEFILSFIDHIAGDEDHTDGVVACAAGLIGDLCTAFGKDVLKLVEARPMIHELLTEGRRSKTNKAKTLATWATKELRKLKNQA
UniProt Q9BQ90: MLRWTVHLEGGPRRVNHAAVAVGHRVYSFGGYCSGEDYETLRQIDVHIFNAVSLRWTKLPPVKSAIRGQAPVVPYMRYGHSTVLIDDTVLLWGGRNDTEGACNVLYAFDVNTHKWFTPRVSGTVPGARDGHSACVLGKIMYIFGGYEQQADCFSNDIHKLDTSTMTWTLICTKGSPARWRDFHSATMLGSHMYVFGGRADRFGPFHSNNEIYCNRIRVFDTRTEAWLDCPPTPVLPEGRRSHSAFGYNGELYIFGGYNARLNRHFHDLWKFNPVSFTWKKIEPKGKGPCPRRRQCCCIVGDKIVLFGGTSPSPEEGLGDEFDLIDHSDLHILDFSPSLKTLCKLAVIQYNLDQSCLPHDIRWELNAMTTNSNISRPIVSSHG
UniProt Q71RC2, whole entry, looked up: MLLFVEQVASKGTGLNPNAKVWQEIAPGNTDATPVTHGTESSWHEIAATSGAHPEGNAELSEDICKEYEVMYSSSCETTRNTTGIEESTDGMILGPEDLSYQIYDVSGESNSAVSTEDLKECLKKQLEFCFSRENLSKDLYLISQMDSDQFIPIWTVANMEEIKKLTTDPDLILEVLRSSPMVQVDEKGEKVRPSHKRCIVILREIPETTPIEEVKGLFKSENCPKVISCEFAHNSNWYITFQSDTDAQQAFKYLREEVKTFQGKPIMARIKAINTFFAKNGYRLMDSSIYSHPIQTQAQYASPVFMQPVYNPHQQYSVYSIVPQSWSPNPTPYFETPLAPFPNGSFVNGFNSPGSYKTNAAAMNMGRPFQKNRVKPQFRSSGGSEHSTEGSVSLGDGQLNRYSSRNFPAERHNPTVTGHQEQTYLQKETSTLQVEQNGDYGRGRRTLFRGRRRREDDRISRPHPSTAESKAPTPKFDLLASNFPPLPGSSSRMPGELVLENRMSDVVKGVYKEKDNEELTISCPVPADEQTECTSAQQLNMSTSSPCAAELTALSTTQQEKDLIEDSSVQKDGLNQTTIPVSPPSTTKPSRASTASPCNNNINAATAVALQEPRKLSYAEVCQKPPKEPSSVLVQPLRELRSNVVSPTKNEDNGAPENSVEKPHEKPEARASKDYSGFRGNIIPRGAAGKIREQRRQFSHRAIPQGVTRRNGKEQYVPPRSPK
UniProt Q12840: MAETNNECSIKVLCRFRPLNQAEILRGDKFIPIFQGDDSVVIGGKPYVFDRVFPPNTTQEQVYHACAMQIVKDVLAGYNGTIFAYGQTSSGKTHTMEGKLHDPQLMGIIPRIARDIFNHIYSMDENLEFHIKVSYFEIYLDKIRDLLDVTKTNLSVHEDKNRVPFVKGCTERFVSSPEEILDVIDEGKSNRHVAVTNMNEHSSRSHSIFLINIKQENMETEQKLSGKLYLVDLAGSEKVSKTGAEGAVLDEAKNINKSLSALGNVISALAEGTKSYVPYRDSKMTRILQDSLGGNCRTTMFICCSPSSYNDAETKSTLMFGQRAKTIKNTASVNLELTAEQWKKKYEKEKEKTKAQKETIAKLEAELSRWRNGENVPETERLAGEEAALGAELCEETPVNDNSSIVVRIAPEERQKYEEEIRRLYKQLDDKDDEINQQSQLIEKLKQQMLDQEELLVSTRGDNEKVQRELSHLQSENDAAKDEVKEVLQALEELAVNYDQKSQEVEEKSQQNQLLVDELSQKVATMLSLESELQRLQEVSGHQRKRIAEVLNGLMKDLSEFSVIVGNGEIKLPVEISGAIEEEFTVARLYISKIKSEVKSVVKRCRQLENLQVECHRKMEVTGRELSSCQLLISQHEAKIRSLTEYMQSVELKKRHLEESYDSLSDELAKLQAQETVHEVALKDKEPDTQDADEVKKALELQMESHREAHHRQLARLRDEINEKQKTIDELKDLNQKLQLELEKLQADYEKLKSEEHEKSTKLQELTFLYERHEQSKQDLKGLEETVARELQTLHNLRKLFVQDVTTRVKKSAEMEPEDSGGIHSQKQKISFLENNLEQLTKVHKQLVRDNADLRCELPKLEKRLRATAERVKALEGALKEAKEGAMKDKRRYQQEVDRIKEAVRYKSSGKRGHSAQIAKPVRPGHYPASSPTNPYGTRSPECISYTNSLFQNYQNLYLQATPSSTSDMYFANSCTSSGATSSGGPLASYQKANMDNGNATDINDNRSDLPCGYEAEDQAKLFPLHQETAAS

Compound: C1COCCN1CCN2C3=CC=CC=C3N=C2NC(=O)C4=CC(=CC=C4)[N+](=O)[O-] [IRAK-1-4 Inhibitor I]
Experiment: log2 fold change, soluble protein after heating vs DMSO (PISA); higher = thermal stabilisation; K562 lysate, 10 uM; active = over 0.2 and 3.5 SD of the protein, either way, in both replicates (recomputed)
Procedure, shortened: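 K562 pellets were dounce-homogenised in PBS pH 7.4 containing 1 mM MgCl2, and the crude extract, at 1 mg/mL protein, was exposed to 10 μM compound for 30 min. Aliquots were heated for 3 min across 48°C-58°C, pooled, brought to 0.5% NP-40 at 4°C and spun at 21,000xg for 90 min, with the supernatant taken as soluble protein. TMTpro 16plex LC-MS/MS with equalised channel sums quantified that protein. Values are log-two fold changes in thermal stability relative to solvent controls, taken from duplicates.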

log2 fold change, inactive:
KLHDC4 (UniProt Q8TBB5) -0.03
KIF5B (UniProt P33176) -0.013
KIAA2013 (UniProt Q8IYS2) -0.014
KIF1B isoform 2 (UniProt O60333) -0.01
KTI12 (UniProt Q96EK9) -0.008
KDSR (UniProt Q06136) 0.05
KIF2C (UniProt Q99661) -0.019
LANCL1 (UniProt O43813) 0.017
KPTN (UniProt Q9Y664) 0.032
LARP7 isoform 3 (UniProt Q4G0J3) -0.022
KDM8 isoform 3 (UniProt Q8N371) 0.037
KEAP1 (UniProt Q14145) -0.006
KLC2 (UniProt Q9H0B6) -0.009
KPNB1 (UniProt Q14974) 0.008
KSR1 (UniProt Q8IVT5) -0.008
KPNA2 (UniProt P52292) -0.02
KLHDC3 (UniProt Q9BQ90) 0.019
KYAT3 (UniProt Q6YP21) -0.014
LARP4 isoform 4 (UniProt Q71RC2) -0.024
KIF5A (UniProt Q12840) 0.029
KIAA1191 (UniProt Q96A73) -0.015
KIF2A isoform 4 (UniProt O00139) -0.026

2 entries drawn at random from the list so far:
log2 fold change, inactive:
KDSR (UniProt Q06136) 0.05
KIAA1191 (UniProt Q96A73) -0.015
